Data as given in PubChem BioAssay AID330 (DTP/NCI, 2004).
The list does not hold the whole screen: it is rich in T/C values a quarter to a half above the control, in often repeated tests (any T/C) and in doses without a T/C. Further doses and runs are listed elsewhere. T/C gives the treated animals as a percentage of the vehicle group. Some doses have a count of surviving animals in place of a T/C: the source holds a T/C of zero for them, seemingly a mark for toxic or unscored doses. Some survivor counts are full or nearly so, which does not show that the dose was tolerated: survival well below the control is almost never listed, so the zero probably covers shortened survival too. Survivors were counted at the toxicity check, usually on the fifth day, unless a day is given; later deaths do not show. Schedules are NCI's codes, read here as Q, the interval in days (D) or hours (H), X, the number of doses. Some entries hold several experiments; the results are listed from low to high. Additions like (4×) count equal records among those shown. Where survival is the endpoint, the PubChem record calls one and a half times the control and up active, and a quarter to a half above the control has no call in these data; cut-offs in other NCI protocols can differ. Some T/C values carry the count of animals alive at the toxicity check (mostly the fifth day); without a count, all were alive then.

System: P388 leukemia ip, CD2F1 mice, survival T/C
Test: NCI In Vivo Anticancer Drug Screen. Data for tumor model P388 Leukemia (intraperitoneal) in CD2F1 (CDF1) mice
Details: T/C endpoint: median survival time, higher T/C = longer survival
[1] = dose: 200.0 mg/kg/injection, schedule: Q01DX005 (ip), vehicle: saline with Tween-80
[2] = dose: 50.0 mg/kg/injection, schedule: Q01DX009 (ip), vehicle: saline with Tween-80
[3] = dose: 200.0 mg/kg/injection, schedule: Q01DX009 (ip), vehicle: saline with Tween-80
[4] = dose: 50.0 mg/kg/injection, schedule: Q01DX009 (ip), vehicle: distilled water + alcohol

In the case of `CC[C@@]1(O)C[C@H](OC2CC(N)C(O)C(C)O2)c2c(O)c3c(c(O)c2[C@H]1C(=O)OC)C(=O)c1cccc(O)c1C3=O` (stereo partly specified), the T/C (dose: 1.5 mg/kg/injection, schedule: Q01DX009 (ip), vehicle: water) was 127 % of control, the T/C (dose: 3.5 mg/kg/injection, schedule: Q01DX009 (ip), vehicle: water) was 130 % of control and the T/C (dose: 4.0 mg/kg/injection, schedule: Q01DX009 (ip), vehicle: water) was 132 % of control. For the same compound, the T/C (dose: 5.3 mg/kg/injection, schedule: Q01DX009 (ip), vehicle: water) was 139 % of control, the T/C (dose: 6.25 mg/kg/injection, schedule: Q01DX001 (ip), vehicle: water) was 130 % of control and the T/C (dose: 8.0 mg/kg/injection, schedule: Q01DX009 (ip), vehicle: water) was 135 and 145 % of control. The T/C (dose: 12.0 mg/kg/injection, schedule: Q01DX009 (ip), vehicle: water) was 141 % of control, the T/C (dose: 12.5 mg/kg/injection, schedule: Q01DX001 (ip), vehicle: water) was 137 % of control and the survivor count (dose: 24.0 mg/kg/injection, schedule: Q01DX009 (ip), vehicle: water) was 4 of 6. The T/C (dose: 25.0 mg/kg/injection, schedule: Q01DX001 (ip), vehicle: water) was 125 % of control, the survivor count (dose: 32.0 mg/kg/injection, schedule: Q01DX009 (ip), vehicle: water) was 4 of 6 and the survivor count (dose: 50.0 mg/kg/injection, schedule: Q01DX001 (ip), vehicle: water) was 1 of 6 and 4 of 6. The survivor count (dose: 100.0 mg/kg/injection, schedule: Q01DX001 (ip), vehicle: water) was 0 of 6 (2×), the survivor count (dose: 200.0 mg/kg/injection, schedule: Q01DX001 (ip), vehicle: water) was 0 of 6 and the survivor count (dose: 400.0 mg/kg/injection, schedule: Q01DX001 (ip), vehicle: water) was 0 of 6.

For `FC(F)(F)c1ccccc1NC(=S)SCc1ccco1`, the survivor count (dose: 200.0 mg/kg/injection, schedule: Q01DX009 (ip), vehicle: suspension in saline) was 5 of 6.

With `CC(C)(C)C1CCN(Cc2ccccc2)CC1` the survivor count [1] was 0 of 6.

With `O=C1c2ccccc2C(O)(C#Cc2ccccc2)c2c1oc1c2ccc2ccccc21` (stereo unspecified) the survivor count [2] was 6 of 6 and the survivor count [3] was 6 of 6.

`c1ccc(-c2c3ccccc3c(-c3ccccc3)c3c(-c4ccccc4)c4ccccc4c(-c4ccccc4)c23)cc1` was tested, and the survivor count (dose: 120.0 mg/kg/injection, schedule: Q01DX005 (ip), vehicle: saline with Tween-80) was 6 of 6 and the survivor count (dose: 240.0 mg/kg/injection, schedule: Q01DX005 (ip), vehicle: saline with Tween-80) was 6 of 6.

In the case of `CNC(=O)OCc1c(COC(=O)NC)c2n(c1C)CS(=O)(=O)C2`, the T/C (dose: 25.0 mg/kg/injection, schedule: Q01DX005 (ip), vehicle: saline with Tween-80) was 139 % of control, the T/C (dose: 50.0 mg/kg/injection, schedule: Q01DX005 (ip), vehicle: saline with Tween-80) was 140 and 147 % of control and the survivor count [1] was 6 of 6.

In the case of `Cc1cc(NN)nc2n[nH]c(N)c12`, the survivor count (dose: 100.0 mg/kg/injection, schedule: Q01DX005 (ip), vehicle: saline with Tween-80) was 1 of 5 and the survivor count [1] was 0 of 5.

With `Cc1cnc(N/N=C/c2c(CO)cnc(C)c2O)s1` the survivor count (dose: 60.0 mg/kg/injection, schedule: Q01DX005 (ip), vehicle: saline with Tween-80) was 6 of 6.

With `CCCCCC(CN(C)C)C(O)CCc1ccc(Cl)c(Cl)c1` (stereo unspecified) the survivor count (dose: 200.0 mg/kg/injection, schedule: Q01DX009 (ip), vehicle: Klucel (hydroxypropylcellulose) (HPC)) was 0 of 6.

With `S=C(S)N1CCCCC1` the survivor count [2] was 4 of 6, the survivor count (dose: 100.0 mg/kg/injection, schedule: Q01DX009 (ip), vehicle: saline with Tween-80) was 3 of 6 and the survivor count [3] was 0 of 6.

In the case of `[CH3][Ge]([CH3])[c]1ccccc1`, the survivor count (dose: 200.0 mg/kg/injection, schedule: Q01DX009 (ip), vehicle: saline) was 0 of 6.

For `COc1ccc2c(c1)C(Br)CCCC2=O` (stereo unspecified), the T/C [4] was 99 [5 of 6 alive], 107, 118 % of control, the survivor count [4] was 6 of 6 and the T/C (dose: 100.0 mg/kg/injection, schedule: Q01DX009 (ip), vehicle: distilled water + alcohol) was 99, 106, 107, 122 % of control. For the same compound, the T/C (dose: 200.0 mg/kg/injection, schedule: Q01DX009 (ip), vehicle: distilled water + alcohol) was 108, 111 (2×), 127 % of control.
